No constants are given. Whether binding was seen depends on the method and setting. In cells and extracts the contact can be indirect. Some results given as binding are weak or reduced against the parent protein; the word gives no strength.
Biological target: FLAG-HA−DBC1 (human) (UniProt Q8N163)
Assay: co-IP; IP from nuclear extract of the FLAG-HA−DBC1 stable cell line, then immunoblotting

Chains of the proteins cited; added tags and fusions are not shown.
UniProt Q8N163: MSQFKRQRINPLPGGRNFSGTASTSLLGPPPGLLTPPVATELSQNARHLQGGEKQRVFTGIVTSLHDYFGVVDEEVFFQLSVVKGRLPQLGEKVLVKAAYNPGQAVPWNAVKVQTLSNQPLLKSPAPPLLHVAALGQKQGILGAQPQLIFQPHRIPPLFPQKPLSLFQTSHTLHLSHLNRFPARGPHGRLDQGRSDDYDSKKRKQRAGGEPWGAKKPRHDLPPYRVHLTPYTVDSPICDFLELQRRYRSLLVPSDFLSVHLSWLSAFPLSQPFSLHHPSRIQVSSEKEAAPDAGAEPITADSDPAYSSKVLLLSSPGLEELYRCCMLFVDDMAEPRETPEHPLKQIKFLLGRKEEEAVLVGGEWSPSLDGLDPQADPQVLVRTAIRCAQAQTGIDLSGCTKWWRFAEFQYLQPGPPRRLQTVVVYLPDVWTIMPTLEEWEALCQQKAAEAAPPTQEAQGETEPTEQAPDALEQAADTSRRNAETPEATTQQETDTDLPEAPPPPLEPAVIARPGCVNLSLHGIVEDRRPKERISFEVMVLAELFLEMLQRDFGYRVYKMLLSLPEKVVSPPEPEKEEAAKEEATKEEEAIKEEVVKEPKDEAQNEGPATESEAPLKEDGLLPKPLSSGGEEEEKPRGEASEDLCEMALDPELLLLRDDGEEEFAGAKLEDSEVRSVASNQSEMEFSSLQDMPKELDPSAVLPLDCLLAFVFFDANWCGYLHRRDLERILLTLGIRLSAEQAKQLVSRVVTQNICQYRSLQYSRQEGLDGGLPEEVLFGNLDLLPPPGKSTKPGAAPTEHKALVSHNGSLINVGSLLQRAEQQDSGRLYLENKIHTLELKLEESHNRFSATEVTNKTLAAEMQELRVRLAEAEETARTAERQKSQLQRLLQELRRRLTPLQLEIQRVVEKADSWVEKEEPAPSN

B1: AFF1 (protein, UniProt P51825 1-1210)
chain: MAAQSSLYNDDRNLLRIREKERRNQEAHQEKEAFPEKIPLFGEPYKTAKGDELSSRIQNMLGNYEEVKEFLSTKSHTHRLDASENRLGKPKYPLIPDKGSSIPSSSFHTSVHHQSIHTPASGPLSVGNISHNPKMAQPRTEPMPSLHAKSCGPPDSQHLTQDRLGQEGFGSSHHKKGDRRADGDHCASVTDSAPERELSPLISLPSPVPPLSPIHSNQQTLPRTQGSSKVHGSSNNSKGYCPAKSPKDLAVKVHDKETPQDSLVAPAQPPSQTFPPPSLPSKSVAMQQKPTAYVRPMDGQDQAPSESPELKPLPEDYRQQTFEKTDLKVPAKAKLTKLKMPSQSVEQTYSNEVHCVEEILKEMTHSWPPPLTAIHTPSTAEPSKFPFPTKDSQHVSSVTQNQKQYDTSSKTHSNSQQGTSSMLEDDLQLSDSEDSDSEQTPEKPPSSSAPPSAPQSLPEPVASAHSSSAESESTSDSDSSSDSESESSSSDSEENEPLETPAPEPEPPTTNKWQLDNWLTKVSQPAAPPEGPRSTEPPRRHPESKGSSDSATSQEHSESKDPPPKSSSKAPRAPPEAPHPGKRSCQKSPAQQEPPQRQTVGTKQPKKPVKASARAGSRTSLQGEREPGLLPYGSRDQTSKDKPKVKTKGRPRAAASNEPKPAVPPSSEKKKHKSSLPAPSKALSGPEPAKDNVEDRTPEHFALVPLTESQGPPHSGSGSRTSGCRQAVVVQEDSRKDRLPLPLRDTKLLSPLRDTPPPQSLMVKITLDLLSRIPQPPGKGSRQRKAEDKQPPAGKKHSSEKRSSDSSSKLAKKRKGEAERDCDNKKIRLEKEIKSQSSSSSSSHKESSKTKPSRPSSQSSKKEMLPPPPVSSSSQKPAKPALKRSRREADTCGQDPPKSASSTKSNHKDSSIPKQRRVEGKGSRSSSEHKGSSGDTANPFPVPSLPNGNSKPGKPQVKFDKQQADLHMREAKKMKQKAELMTDRVGKAFKYLEAVLSFIECGIATESESQSSKSAYSVYSETVDLIKFIMSLKSFSDATAPTQEKIFAVLCMRCQSILNMAMFRCKKDIAIKYSRTLNKHFESSSKVAQAPSPCIASTGTPSPLSPMPSPASSVGSQSSAGSVGSSGVAATISTPVTIQNMTSSYVTITSHVLTAFDLWEQAEALTRKNKEFFARLSTNVCTLALNSSLVDLVHYTRQGFQQLQELTKTP
With B1 the binding was “binds”.

Source: paper PMC7104407
